Values from PubChem BioAssay AID652259 (Drosophila RNAi Screening Center, 2013)
The screen tested about 22,000 reagents; shown is an unselected part of those that have a named target and a result. Of all reagents, 233 (1.1%) got an active call. 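Light values are raw, unnormalised plate reads; the ratio scores behind the reporter calls were not deposited.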 The record does not give: the amount of reagent, the time to read-out, the dose of the treatment.

- Test: 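Knock-downs that push a Wingless-driven reporter up or down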 (primary screen)
- Cells: Drosophila clone 8 imaginal disc epithelial cells
- Reagents: long dsRNA against Drosophila genes
- Conditions: pathway stimulated by co-transfected Wingless expression plasmid
- Measurement: 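Dual luciferase reads per well after Wingless plasmid stimulation: reporter firefly light and Renilla control light; activity is firefly divided by Renilla, a ratio not deposited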
- Scale: firefly reporter light: higher = more Wg reporter light, before normalisation; Renilla control light: higher = more transfected or surviving cells
- Active means: 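a knock-down is a candidate when at least two out of four statistical tests show it departing from its plate mean; one test alone signals a weak candidate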
- Meaning of the calls: active = candidate regulator (raises or lowers reporter); inactive = not a candidate

How did the screen score CG15432 [DRSC00447]?
firefly reporter light, replicate 1: 3506; firefly reporter light, replicate 2: 8220; Renilla control light, replicate 1: 342; Renilla control light, replicate 2: 1489; activity call: inactive

How did the screen score CYLD [DRSC02870]?
firefly reporter light, replicate 1: 2205; firefly reporter light, replicate 2: 9299; Renilla control light, replicate 1: 876; Renilla control light, replicate 2: 3942; activity call: inactive

What did the screen give for CG34357 [DRSC12211]?
firefly reporter light, replicate 1: 12149; Renilla control light, replicate 1: 3876; activity call: inactive

For CG34357 [DRSC12238], how do the results read?
firefly reporter light, replicate 1: 10619; Renilla control light, replicate 1: 2148; activity call: inactive

What is on record for CG34357 [DRSC12334]?
firefly reporter light, replicate 1: 13520; Renilla control light, replicate 1: 4390; activity call: inactive

For CG10345 [DRSC14138], what does the deposit list?
firefly reporter light, replicate 1: 4291; firefly reporter light, replicate 2: 5497; Renilla control light, replicate 1: 1619; Renilla control light, replicate 2: 2093; activity call: inactive

For nopo [DRSC06918], what was measured?
firefly reporter light, replicate 1: 13451; Renilla control light, replicate 1: 4573; activity call: inactive

What is on record for CG32163 [DRSC09442]?
firefly reporter light, replicate 1: 5076; Renilla control light, replicate 1: 1910; activity call: inactive

For CG32163 [DRSC21888], how do the results read?
firefly reporter light, replicate 1: 7.66e5; firefly reporter light, replicate 2: 7.40e5; Renilla control light, replicate 1: 3.04e5; Renilla control light, replicate 2: 3.52e5; activity call: inactive

As entered above:
CYLD [DRSC02870], Renilla control light, replicate 2 → 3942
CG15432 [DRSC00447], firefly reporter light, replicate 2 = 8220
Result of CG34357 [DRSC12211] under “activity call”: inactive
Entry of CG34357 [DRSC12334] under “Renilla control light, replicate 1”: 4390

Additional reagents follow:
What is on record for PpN58A [DRSC04642]?
firefly reporter light, replicate 1: 8992; Renilla control light, replicate 1: 3345; activity call: inactive

For Oxp [DRSC06712], what was measured?
firefly reporter light, replicate 1: 6225; Renilla control light, replicate 1: 2257; activity call: inactive

With PH4alphaSG1 [DRSC15080], how do the results read?
firefly reporter light, replicate 1: 5872; Renilla control light, replicate 1: 2816; activity call: inactive

What is on record for GCS2alpha [DRSC21036]?
firefly reporter light, replicate 1: 13346; Renilla control light, replicate 1: 1077; activity call: inactive

How did the screen score Sry-delta [DRSC16869]?
firefly reporter light, replicate 1: 2316; firefly reporter light, replicate 2: 6680; Renilla control light, replicate 1: 1065; Renilla control light, replicate 2: 1799; activity call: inactive

For Cad89D [DRSC15022], what was measured?
firefly reporter light, replicate 1: 19539; Renilla control light, replicate 1: 4520; activity call: inactive

For Ost48 [DRSC18693], what was measured?
firefly reporter light, replicate 1: 3588; firefly reporter light, replicate 2: 7496; Renilla control light, replicate 1: 1171; Renilla control light, replicate 2: 2614; activity call: inactive

For mRpS14 [DRSC19444], how do the results read?
firefly reporter light, replicate 1: 20497; Renilla control light, replicate 1: 9772; activity call: inactive

What is on record for CG13895 [DRSC08365]?
firefly reporter light, replicate 1: 4552; Renilla control light, replicate 1: 2715; activity call: inactive

For Spp [DRSC00328], what was measured?
firefly reporter light, replicate 1: 7465; Renilla control light, replicate 1: 3722; activity call: inactive

For dob [DRSC19948], what does the deposit list?
firefly reporter light, replicate 1: 2189; firefly reporter light, replicate 2: 9958; Renilla control light, replicate 1: 1248; Renilla control light, replicate 2: 3763; activity call: inactive

For CG10053 [DRSC12502], what was measured?
firefly reporter light, replicate 1: 7959; Renilla control light, replicate 1: 2966; activity call: inactive

What is on record for PolrMT [DRSC00660]?
firefly reporter light, replicate 1: 9456; Renilla control light, replicate 1: 2840; activity call: inactive

Which result is listed for CG7443 [DRSC16244]?
firefly reporter light, replicate 1: 15856; Renilla control light, replicate 1: 4296; activity call: inactive

What is on record for JYalpha [DRSC17224]?
firefly reporter light, replicate 1: 17360; Renilla control light, replicate 1: 12522; activity call: inactive

What did the screen give for Him [DRSC19638]?
firefly reporter light, replicate 1: 21344; Renilla control light, replicate 1: 8274; activity call: inactive
